According to PMC4998439:
No constants are given. Whether binding was seen depends on the method and setting. Binding seen in cells or lysates may run through a third protein. Some binding calls cover weakened binding; strength is not graded here.

Amino acid sequences for entries named in this document (tags omitted). Residues count along the entry.
UniProt O75581, residues 20-1613: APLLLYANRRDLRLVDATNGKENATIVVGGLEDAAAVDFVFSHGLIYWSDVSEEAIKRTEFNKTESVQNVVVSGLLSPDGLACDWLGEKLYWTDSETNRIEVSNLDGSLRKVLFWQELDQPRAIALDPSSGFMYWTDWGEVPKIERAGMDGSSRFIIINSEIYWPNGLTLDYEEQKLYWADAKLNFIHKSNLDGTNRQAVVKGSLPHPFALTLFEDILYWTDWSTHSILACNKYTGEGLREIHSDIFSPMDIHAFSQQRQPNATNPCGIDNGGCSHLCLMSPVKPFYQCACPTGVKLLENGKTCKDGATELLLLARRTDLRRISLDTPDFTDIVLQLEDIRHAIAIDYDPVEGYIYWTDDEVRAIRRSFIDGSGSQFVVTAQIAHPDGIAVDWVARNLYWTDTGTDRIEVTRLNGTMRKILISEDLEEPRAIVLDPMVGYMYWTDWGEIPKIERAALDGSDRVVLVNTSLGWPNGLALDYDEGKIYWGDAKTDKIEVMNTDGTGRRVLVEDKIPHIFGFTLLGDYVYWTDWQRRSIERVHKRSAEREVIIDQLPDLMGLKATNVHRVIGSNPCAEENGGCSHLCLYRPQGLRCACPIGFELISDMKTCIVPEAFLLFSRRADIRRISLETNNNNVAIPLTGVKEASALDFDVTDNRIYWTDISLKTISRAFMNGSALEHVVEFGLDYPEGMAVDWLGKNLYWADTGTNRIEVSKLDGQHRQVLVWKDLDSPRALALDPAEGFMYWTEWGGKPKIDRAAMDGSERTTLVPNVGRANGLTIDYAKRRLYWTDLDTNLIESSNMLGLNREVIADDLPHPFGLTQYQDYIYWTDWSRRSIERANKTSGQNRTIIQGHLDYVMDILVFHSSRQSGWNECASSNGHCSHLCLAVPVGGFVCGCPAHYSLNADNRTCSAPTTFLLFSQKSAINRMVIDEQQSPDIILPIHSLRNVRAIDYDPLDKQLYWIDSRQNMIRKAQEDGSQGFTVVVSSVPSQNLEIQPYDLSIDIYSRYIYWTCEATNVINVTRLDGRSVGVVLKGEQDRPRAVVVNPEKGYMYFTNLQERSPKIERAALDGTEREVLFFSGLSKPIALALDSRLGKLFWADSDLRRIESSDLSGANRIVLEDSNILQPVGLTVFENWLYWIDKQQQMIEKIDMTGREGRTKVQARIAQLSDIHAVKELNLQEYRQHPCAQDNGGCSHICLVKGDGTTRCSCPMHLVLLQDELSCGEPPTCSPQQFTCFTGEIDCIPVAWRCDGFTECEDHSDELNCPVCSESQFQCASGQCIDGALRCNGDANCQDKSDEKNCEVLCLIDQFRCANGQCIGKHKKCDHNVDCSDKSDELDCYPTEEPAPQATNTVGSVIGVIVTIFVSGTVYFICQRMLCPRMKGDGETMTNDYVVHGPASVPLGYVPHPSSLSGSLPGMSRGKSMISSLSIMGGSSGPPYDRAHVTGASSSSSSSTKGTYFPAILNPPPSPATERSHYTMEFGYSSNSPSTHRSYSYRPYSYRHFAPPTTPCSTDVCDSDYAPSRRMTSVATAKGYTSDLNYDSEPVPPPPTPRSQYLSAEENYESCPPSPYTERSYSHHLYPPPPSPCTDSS

Biological target: low-density lipoprotein receptor-related protein 6 (human (endogenous in bone biopsies)) (UniProt O75581)
Experiment: co-IP; lysates of metastatic bone lesions (breast, lung, prostate primaries) and multiple myeloma bone lesions in 1% TX-100, 150 mM NaCl, Tris-HCl pH 8, 1 mM MgCl2 and CaCl2; anti-Dickkopf-1 or anti-Lrp6 antibody (1.5 ug/mL) with Protein A/G PLUS agarose, cold room, 6 hours; Western blot

B1: Dickkopf-1 (protein, UniProt O94907 32-266)
chain: TLNSVLNSNAIKNLPPPLGGAAGHPGSAVSAAPGILYPGGNKYQTIDNYQPYPCAEDEECGTDEYCASPTRGGDAGVQICLACRKRRKRCMRHAMCCPGNYCKNGICVSSDQNHFRGEIEETITESFGNDHSTLDGYSRRTTLSSKMYHTKGQEGSVCLRSSDCASGLCCARHFWSKICKPVLKEGQVCTKHRRKGSHGLEIFQRCYCGEGLSCRIQKDHHQASNSSRLHTCQRH
B1 was tested, and the binding was “binds”.
